Results reported in publication PMC6199744, “Development of Chemical Proteomics for the Folateome and Analysis of the Kinetoplastid Folateome” (ACS Infectious Diseases, 2018).
Where two headings read alike, the source gives them in different places. Further values from the same series stand in other lists.

Test system: T. brucei lysate proteins
Format: binding, Trypanosoma brucei

Which results are given for `CCCCCCOc1ccc(Cc2cnc(N)nc2N)cc1` [compound 1]?
fold change (protein TB09.211.0560 RNA-BINDING PROTEIN, vehicle control = 1): 0.91; fold change (protein TB09.211.4760 METACASPASE 5, PUTATIVE, vehicle control = 1): 0.84; fold change (protein TB11.02.2040 HY[…], CONSERVED, vehicle control = 1): 0.89; fold change (protein TB11.03.0530 HY[…], CONSERVED, vehicle control = 1): 1.1; fold change - vehicle control (protein TB427TMP.01.0620 HY[…], CONSERVED): 0.8; fold change (protein TB427TMP.01.2460 HY[…], CONSERVED, vehicle control = 1): 0.86; fold change (protein TB427TMP.01.2840 HY[…], CONSERVED, vehicle control = 1): 1; fold change (protein TB427TMP.01.3110 HEAT SHOCK PROTEIN 70, vehicle control = 1): 1.1; fold change (protein TB427TMP.01.6180 HY[…], CONSERVED, vehicle control = 1): 0.95; fold change (protein TB427TMP.01.7290 NUDIX HYDROLASE, CONSERVED, vehicle control = 1): 1.1; fold change (protein TB427TMP.02.2890 HY[…], CONSERVED, vehicle control = 1): 0.98; fold change (protein TB427TMP.02.4300 HY[…], CONSERVED, vehicle control = 1): 0.89; fold change (protein TB427TMP.03.0030 ABC TRANSPORTER, PUTATIVE, vehicle control = 1): 1.3; fold change (protein TB427TMP.160.4560 ARGININE KINASE, vehicle control = 1): 1.55; fold change (protein TB427TMP.160.4620 INOSITOL-1(OR 4)-MONOPHOSPHATASE, PUTATIVE, vehicle control = 1): 0.95; fold change (protein TB427TMP.211.2460 HY[…], CONSERVED, vehicle control = 1): 1.2; fold change (protein TB427TMP.211.4550 60S RIBOSOMAL PROTEIN L12, PUTATIVE, vehicle control = 1): 1.38; fold change (protein TB427TMP.211.4810 HY[…], CONSERVED, vehicle control = 1): 0.94; fold change (protein TB427TMP.244.2570 CALCIUM MOTIVE P-TYPE ATPASE, PUTATIVE, vehicle control = 1): 0.88; fold change (protein TB427TMP.57.0008 CALPAIN-LIKE PROTEIN, PUTATIVE, vehicle control = 1): 1.21; fold change (protein TB427.02.5820 HY[…], CONSERVED, vehicle control = 1): 1.75; fold change (protein TB427.02.5900 HY[…], CONSERVED, vehicle control = 1): 0.95; fold change (protein TB427.03.3000 FLAGELLAR TRANSPORT PROTEIN, PUTATIVE, vehicle control = 1): 1; fold change (protein TB427.03.4070 HY[…], CONSERVED, vehicle control = 1): 0.97; fold change (protein TB427.04.2060 HY[…], CONSERVED, vehicle control = 1): 0.94; fold change (protein TB427.04.2340 HY[…], CONSERVED, vehicle control = 1): 0.93; fold change (protein TB427.04.3740 FLAGELLAR […] PROTEIN, vehicle control = 1): 1.46; fold change - vehicle control (protein TB427.05.1490 HY[…], CONSERVED): 1.08; fold change (protein TB427.05.1700 R[…] A 28 KDA SUBUNIT, PUTATIVE, vehicle control = 1): 1.21; fold change (protein TB427.05.3260 HY[…], CONSERVED, vehicle control = 1): 1; fold change (protein TB427.05.550 VACUOLAR ATP SYNTHASE, PUTATIVE, vehicle control = 1): 1.42; fold change (protein TB427.06.4740 IMPORTIN-ALPHA RE-EXPORTER PROTEIN, PUTATIVE, vehicle control = 1): 0.93; fold change (protein TB427.08.1420 ACYL-COA DEHYDROGENASE, MIT[…], PUTATIVE, vehicle control = 1): 0.88; fold change (protein TB427.08.1950 HY[…], CONSERVED, vehicle control = 1): 0.94; fold change (protein TB427.10.14180 PROTEIN TRANSPORT PROTEIN SEC13, PUTATIVE, vehicle control = 1): 0.94; fold change (protein TB427.10.1450 HY[…], CONSERVED, vehicle control = 1): 1.4; fold change (protein TB427.10.14860 HY[…], CONSERVED, vehicle control = 1): 0.89; fold change (protein TB427.10.15360 HY[…], CONSERVED, vehicle control = 1): 0.91; fold change (protein TB427.10.15910 GLYCEROL UPTAKE PROTEIN, PUTATIVE, vehicle control = 1): 0.94; fold change (protein TB427.10.2020 HEXOKINASE, vehicle control = 1): 1.5; fold change (protein TB427.10.3210 DELTA-1-PYRROLINE-5-CARBOXYLATE DEHYDROGENASE, PUTATIVE, vehicle control = 1): 0.99; fold change (protein TB427.10.4600 HY[…], CONSERVED, vehicle control = 1): 0.46; fold change (protein TB427.10.5520 HY[…], CONSERVED, vehicle control = 1): 0.78; fold change - vehicle control (protein TB427.10.5840 T[…] 1-BETA, PUTATIVE): 0.89; fold change (protein TB427.10.5850 HY[…], CONSERVED, vehicle control = 1): 1.2; fold change (protein TB427.10.7620 MIT[…]-DEPENDENT ZINC METALLOPEPTIDASE, PUTATIVE, vehicle control = 1): 1.4; fold change (protein TB427.10.9890 HY[…], CONSERVED, vehicle control = 1): 1.1; fold change (protein TB927.10.13290 ETHANOLAMINE PHOSPHOTRANSFERASE (EPT), vehicle control = 1): 0.94; fold change (protein TB927.10.14170 AQUAPORIN 9, PUTATIVE, vehicle control = 1): 0.96; fold change (protein TB927.10.4310 PROHIBITIN 2, PUTATIVE, vehicle control = 1): 0.96; fold change (protein TB927.10.6050 CLATHRIN HEAVY CHAIN, vehicle control = 1): 0.94; fold change (protein TB927.10.9740 […] SUBUNIT 6, vehicle control = 1): 1.34; fold change (protein TB927.2.1780 UDP-GLCNAC:PI A1-6 GLCNAC-TRANSFERASE, vehicle control = 1): 0.92; fold change (protein TB927.2.5160 CHAPERONE PROTEIN DNAJ, PUTATIVE, vehicle control = 1): 1.52; fold change (protein TB927.6.2360 ADENOSINE KINASE, PUTATIVE, vehicle control = 1): 0.91; fold change (protein TB927.7.7040 METHYLTHIOADENOSINE PHOSPHORYLASE, PUTATIVE, vehicle control = 1): 0.55; fold change (vs vehicle control, protein ADENOSINE TRANSPORTER 1 (CZT00028614.1)): 1.1; fold change (vs vehicle control, protein HA-UBIQUITIN (CZB00000046.1)): 0.78; fold change (vs vehicle control, protein TB09.160.2360 POLY(A) EXPORT PROTEIN, PUTATIVE): 0.93; fold change (vs vehicle control, protein TB09.211.0630 ACTIN A): 0.93
